Some of the results follow.

The assay concerns the target T1, OsSMF1 (Oryza sativa, UniProt Q6ZLB0 1-436).
T1 sequence: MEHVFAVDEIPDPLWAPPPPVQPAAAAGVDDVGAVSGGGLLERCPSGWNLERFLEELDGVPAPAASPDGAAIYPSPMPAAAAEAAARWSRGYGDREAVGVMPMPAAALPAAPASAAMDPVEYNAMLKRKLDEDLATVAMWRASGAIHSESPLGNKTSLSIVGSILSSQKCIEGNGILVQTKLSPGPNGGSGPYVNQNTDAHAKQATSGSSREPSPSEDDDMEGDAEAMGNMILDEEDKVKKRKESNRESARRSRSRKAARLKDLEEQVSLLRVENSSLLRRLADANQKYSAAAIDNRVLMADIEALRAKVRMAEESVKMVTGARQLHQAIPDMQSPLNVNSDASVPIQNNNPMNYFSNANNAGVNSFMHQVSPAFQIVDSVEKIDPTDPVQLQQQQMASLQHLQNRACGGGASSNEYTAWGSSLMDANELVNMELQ
The assay can be described thus: protein-binding microarray (RPBM); PBS, 2% BSA, 51.3 ng/ul salmon testes DNA, 50 uM zinc acetate, 200 nM TF, 25 C, 1 h; high values mean tight binding. As to conditions: protein: recombinant; tags: N-terminal polyhistidine and DsRed monomer fusion (pET32a); chain copies: 2; label: CyDye5-dUTP incorporated in the synthesized complementary strand; 3' TTTTT single-stranded linker to array surface; dsDNA, one strand shown. The method, boiled down: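 For the binding signal, per-feature fluorescence intensity was read in arbitrary units on an Axon 4000B scanner. Before scanning, a 2% BSA-blocked custom Agilent array made double-stranded with Cy5-dUTP was washed after 1 h at 25 °C with 200 nM protein and 50 µM zinc acetate. The proteins were Ni–NTA-purified transcription factors with N-terminal polyhistidine and DsRed fusions, expressed in E. coli BL21-CodonPlus.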
Turning to “CTGCTGTATGTCATGACGCAGACTGAAATGCTACTCAAATCGGAGTCACCTAGTGCAG”, the binding signal was 4130 fluorescence intensity (a.u.).
For “GTAGTATTACGCAGTTCGCACACTATACTCCGATCCGGCCCGGAGTCACCTAGTGCAG” the value was 15800 fluorescence intensity (a.u.); for “CCGCCTCCTCACTCACTCCCCTCCCCACCACGCACGCACCCGGAGTCACCTAGTGCAG”, 5210 fluorescence intensity (a.u.).
For “ATTGGAAGCATATACATTCGTGATATCAAATGAGATGAGTCGGAGTCACCTAGTGCAG” the value was 3520 fluorescence intensity (a.u.); for “AAATCAAAATCATTTGCGTCAAATCACATTGGCATGCTCACGGAGTCACCTAGTGCAG”, 3280 fluorescence intensity (a.u.).
Regarding “TTAAATACTCAGCTTGCGCTAGATTATAAATTCAACAAGACGGAGTCACCTAGTGCAG”, the binding signal was 3310 fluorescence intensity (a.u.).
With “GGCGAACCGGACACGCAGCCACGCAGGTCGCCATGGCCGACGGAGTCACCTAGTGCAG” the figure was 3200 fluorescence intensity (a.u.).
With “ACGCCATGTGCTGGACAGTCTCACTGGGTTTTGTTGCGGGCGGAGTCACCTAGTGCAG”, the binding signal was 27100 fluorescence intensity (a.u.).
For “TCCCGAAACCCGACACGCGGCACCGATCGATCGATCGATCCGGAGTCACCTAGTGCAG” the value was 3240 fluorescence intensity (a.u.); for “GGCGTGGCCACCTGCGCGTGCTGACGCGTCAGCGAGGCGCCGGAGTCACCTAGTGCAG”, 14700 fluorescence intensity (a.u.).
For “TGTGAAGACCCTGGATGACTCCTCCGTCACTGAAGCATCCCGGAGTCACCTAGTGCAG” the value was 3820 fluorescence intensity (a.u.); for “ATTTAGACTGCACAAATGCAGGGCCACATGTGTCACGCCCCGGAGTCACCTAGTGCAG”, 3860 fluorescence intensity (a.u.).
With “GAACTTGAGAAGGAAAGACGCAGGTGCGCTCTCTGAGGGGCGGAGTCACCTAGTGCAG” the figure was 3210 fluorescence intensity (a.u.).
As to “ACGGACTTGTTGCGTGCGTGTGTGCCCATGGATTTGAACTCGGAGTCACCTAGTGCAG”, the binding signal is 3500 fluorescence intensity (a.u.).
With “AATTTTGACGTGTCACGTCAGATATACGGACATACATTTGCGGAGTCACCTAGTGCAG” the figure was 17300 fluorescence intensity (a.u.); with “AGCCAGATTTGTTGTCTTAGAAGGGATCACATGACTCATACGGAGTCACCTAGTGCAG”, 7180 fluorescence intensity (a.u.).
On to “ATCTCCTGGAACACGTACTTTGCATTTCCCGTTTTCCAGCCGGAGTCACCTAGTGCAG”, for which the binding signal is 4460 fluorescence intensity (a.u.).
With “TTAAGGTGGCGGCCTCAAGATTTGGTGGCAGCGTCAACTGCGGAGTCACCTAGTGCAG” the figure was 3890 fluorescence intensity (a.u.); with “AAAACCGTGGATATGCATAATACGTCGTGATCGTGTCATTCGGAGTCACCTAGTGCAG”, 4440 fluorescence intensity (a.u.).
Consider “CCGTCAACCTCGCCGTGCGCCTCCCCGAGCCCGACGACGGCGGAGTCACCTAGTGCAG”, for which the binding signal was 27000 fluorescence intensity (a.u.).
Take “ATCATCCATGGACCATGGTTCAATTCGTGGCAACTTAACCCGGAGTCACCTAGTGCAG”: the binding signal was 3510 fluorescence intensity (a.u.).
Take “GTGGGGCCCGTTTGACCGTTTGACAGGTGGCGCGATTTTCCGGAGTCACCTAGTGCAG”: the binding signal was 3500 fluorescence intensity (a.u.).
For “CTCTCTCTCTCTCTCTCTCTCTATATATATATATATATATCGGAGTCACCTAGTGCAG” the value was 3780 fluorescence intensity (a.u.).
“TGCCCTTATTTGCCCAATCACTAAGCGGATGATGACTAACCGGAGTCACCTAGTGCAG”: the binding signal was 3360 fluorescence intensity (a.u.).
With “CCCATCTCACCAGTGACGTGCTTCTTCATCATCCCTATATCGGAGTCACCTAGTGCAG” the figure was 6700 fluorescence intensity (a.u.); with “TTGGATGTTCTTCCCGTTGTTGTGTTTTATCATGTGCCTTCGGAGTCACCTAGTGCAG”, 3330 fluorescence intensity (a.u.); with “TAATGGGGCATATTCGTGGGTGTGTAAGTATAACGTTATACGGAGTCACCTAGTGCAG”, 3960 fluorescence intensity (a.u.).
With “GCTGGGCCGTCAGCCCACACGTGCGAGTCACGGGCCCACGCGGAGTCACCTAGTGCAG” the figure was 4500 fluorescence intensity (a.u.); with “GACCGAGACTCCCTGACTTGGCGCCAGGCAAAACCACCATCGGAGTCACCTAGTGCAG”, 4230 fluorescence intensity (a.u.).
Regarding “CATGCTGCCAACTCTGCAATTCTGATGTCCATTGCCAATCCGGAGTCACCTAGTGCAG”, the binding signal was 4420 fluorescence intensity (a.u.).
For “TCCTGCCTCCTCCCGAAATTCGCAAGTGTCACTAGTTAACCGGAGTCACCTAGTGCAG” the value was 3420 fluorescence intensity (a.u.); for “CCGTCAGATTCCGCCGCCACTATTATCGTCTTCCTCAAGTCGGAGTCACCTAGTGCAG”, 3500 fluorescence intensity (a.u.); for “AACATACGGTCCGACGCGTGTATTGCCCTGCATCCGGTTCCGGAGTCACCTAGTGCAG”, 3230 fluorescence intensity (a.u.).
For “CGATTGAGCTGAAGACGTACGCATATGCTTCCGCGCGAACCGGAGTCACCTAGTGCAG” the value was 3220 fluorescence intensity (a.u.).
With “GAACAAGAAGGAGACTGATTCATTCATACATGGCGGGGCTCGGAGTCACCTAGTGCAG” the figure was 26200 fluorescence intensity (a.u.).
As to “CAGTAATGTGAGCTATGACTGTGTGACAGAAACCCACGGTCGGAGTCACCTAGTGCAG”, the binding signal was 3790 fluorescence intensity (a.u.).
With “CCCCGTCCTCCGGCAGCGGGTTCGACGTCATCAGGTGCGACGGAGTCACCTAGTGCAG” the figure was 8820 fluorescence intensity (a.u.); with “ATGGACGACGCCACGAGCTCGCTCTCACACGCGCCATCAGCGGAGTCACCTAGTGCAG”, 3360 fluorescence intensity (a.u.); with “TGATTACGTAATTTTCATTTAACAAAACTAATTGTCAAACCGGAGTCACCTAGTGCAG”, 13900 fluorescence intensity (a.u.).
As to “CAGCTGATGAATGGTCATTGCCATTGGTGACCAACCAGGTCGGAGTCACCTAGTGCAG”, the binding signal is 3990 fluorescence intensity (a.u.).
Take “TCTCCACGCCGGCGCCACGGCGACGCCTTTCCCCTTCTCCCGGAGTCACCTAGTGCAG”: the binding signal is 4950 fluorescence intensity (a.u.).
For “GAGATGCGATCGAATGTTAGTCGTACGTCATGGTCGTATACGGAGTCACCTAGTGCAG” the value was 6980 fluorescence intensity (a.u.).
With “GCCGAATTATTGGGCGCCCACGAACCGCACATGTGGGATGCGGAGTCACCTAGTGCAG” the figure was 3290 fluorescence intensity (a.u.); with “CCTACACCGTTGCAACACGCGTCAAACTTGCTCGATCTCTCGGAGTCACCTAGTGCAG”, 3750 fluorescence intensity (a.u.).
With “CATCGTCACCGCCACCACCACCACGTCCTCCTCAAGGTCTCGGAGTCACCTAGTGCAG” the figure was 7250 fluorescence intensity (a.u.); with “GAGAGAGAGAGAGAGAGGAGGCAGCTTGCTCCACACGCCTCGGAGTCACCTAGTGCAG”, 5650 fluorescence intensity (a.u.); with “CATATTATAAAATGTTGTGCTAATTATTATCGGTGTATATCGGAGTCACCTAGTGCAG”, 22300 fluorescence intensity (a.u.).
Consider “ATTTGACGAGCCGCGCCCACGCAAGCAAAACAAGGAAGCCCGGAGTCACCTAGTGCAG”, for which the binding signal is 5180 fluorescence intensity (a.u.).
“AAGACGTTGCTGAGGTCTCATCAGTGCGAGAGCAAGGCAACGGAGTCACCTAGTGCAG”: the binding signal was 30200 fluorescence intensity (a.u.).
For “TCAGGGTGAGATGGAGGAAAGTGGGACCCAATGACATGTGCGGAGTCACCTAGTGCAG” the value was 3330 fluorescence intensity (a.u.).
For “TGCTGACTTGGCGTTGACCTGTGAAATTCTCTCGCTTCACCGGAGTCACCTAGTGCAG” the value was 7210 fluorescence intensity (a.u.); for “AGCTTAAACATAGACTTGACACGGGTGCTTGTATTTACAGCGGAGTCACCTAGTGCAG”, 3310 fluorescence intensity (a.u.).
For “GAAGGAATCTTGCCACAAGTGTGGCTATGAACCAAACAATCGGAGTCACCTAGTGCAG” the value was 28200 fluorescence intensity (a.u.); for “GGAAAGAGTGACGGGGTGGATGGAAAGAGTGACGGAGTGGCGGAGTCACCTAGTGCAG”, 3190 fluorescence intensity (a.u.).
